# According to the supplement of paper PMC12823440, “Inhibitors supercharge kinase turnover through native proteolytic circuits” (Nature, 2025):
# Where a name gives a salt, the structure may show the parent alone. The list shows a part of the results. The calls rarely recur for the same compound in another form.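 Kinases were expressed as nanoluciferase fusions in K562 cells and luminescence was read every 4 h between 2 and 18 h as percent of control, DMSO set to 100% and a positive control to 0%. A time point counts as decreased when the signal drops significantly (2 sigma). The hit call is the authors' own, does not follow from the count of time points alone, and its rule is not shown.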
# Molecular target: SYK (UniProt P43405)
# Assay: number of time points (of 5) at which kinase-Nluc abundance scored as decreased, DMSO-normalised (count); higher = more persistent destabilization
# Details: K562; 2-18 h
row,SMILES,number of time points
1,COc1ccc(Cn2cc(C(=O)N=Nc3c(O)[nH]c4c(C)cccc34)nn2)cc1 [MARK4 inhibitor 1] (10 µM),0
2,COc1cc([N+](=O)[O-])ccc1S(=O)(=O)N1C[C@@H](CN2CCN(c3ccccn3)CC2)[C@H](c2cccc(F)c2)C1 (relative stereo) (10 µM),0
3,Cc1cc(Nc2nc(N[C@@H](C)c3ccc(F)cc3)c(C#N)cc2F)n[nH]1 (10 µM),0
4,Cc1ccc(S(=O)(=O)/C=C/C#N)cc1 (10 µM),0
5,Cc1c(CN2CCN(S(C)(=O)=O)CC2)sc2c(N3CCOCC3)nc(-c3cnc(N)nc3)nc12 (2.5 µM),0
6,COc1ccc(-c2ccc3c(N4CCOC[C@@H]4C)nc(N4CCOC[C@@H]4C)nc3n2)cc1CO (2.5 µM),1
7,CCN(CC)S(=O)(=O)c1ccc(OC)c(N2CCN(C(=O)c3ccc(F)cc3C(F)(F)F)CC2)c1 (10 µM),0
8,CC1CN(C(=O)Nc2ccc(Cl)c(Cl)c2)C(=Nc2ccc(F)cc2)S1 (configuration not stated) (10 µM),0
9,COCCO[C@@H]1[C@H](O)[C@@H](CO)O[C@H]1n1cnc2c(=O)[nH]c(N)nc21 [2′-O-(2-Methoxyethyl)guanosine] (10 µM),0
10,COc1cc(F)c(F)c(Nc2ccc(I)cc2F)c1NS(=O)(=O)C1(C[C@H](O)CO)CC1 [Refametinib] (10 µM),0
11,CC(C)=CC[C@H](O)C1=CC(=O)c2c(O)ccc(O)c2C1=O [(-)-Alkannin] (2.5 µM),0
12,C[C@@]1(O)CCC[C@H]1n1c(=O)c(C(F)F)cc2cnc(NC3CCN(S(C)(=O)=O)CC3)nc21 (2.5 µM),0
13,CS(=O)(=O)c1ccc(-c2noc(C(F)(F)F)c2-c2ccccc2)cc1 (10 µM),0
14,COc1ccc2[nH]cc(/C=C3\C(=O)Nc4ccc(NC(=O)CCN5CCCCC5)cc43)c2c1 (2.5 µM),0
15,O=C(Nc1ccc(F)cc1F)[C@H](NC(=S)Nc1cc(C(F)(F)F)cc(C(F)(F)F)c1)c1ccccc1 (2.5 µM),0
16,CC(C)CN[C@H]1CS(=O)(=O)C[C@@H]1S(=O)(=O)c1ccc(Cl)cc1 (10 µM),0

# Shown bar-delimited: 2 of the compounds above.
row | SMILES | number of time points
1 | COc1ccc(Cn2cc(C(=O)N=Nc3c(O)[nH]c4c(C)cccc34)nn2)cc1 [MARK4 inhibitor 1] (10 µM) | 0
15 | O=C(Nc1ccc(F)cc1F)[C@H](NC(=S)Nc1cc(C(F)(F)F)cc(C(F)(F)F)c1)c1ccccc1 (2.5 µM) | 0

# Next part

row,SMILES,number of time points
1,COc1ccc(C2CC(c3ccccc3)=NN2c2ccc(S(N)(=O)=O)cc2)cc1 (configuration not stated) (10 µM),0
2,CC/C=C\C/C=C\C/C=C\CCCCCCCC(=O)O [α-Linolenic acid] (10 µM),0
3,O=C(Nc1nc2ccccc2[nH]1)c1cccc(-n2cccc2)c1 (10 µM),0
4,COc1ncc(-c2nc(N3CCOCC3)nc3c(CN4CCC(C(C)(C)O)CC4)cc(F)cc23)cc1NS(C)(=O)=O [Linperlisib] (10 µM),0
5,COc1ccc([C@H]2c3[nH]c4ccc(Cl)cc4c3CCN2C(=O)Oc2ccc(Cl)cc2)cc1 (2.5 µM),0
6,COc1c(NC(=O)C(=O)c2ccc(OCCN3CCOCC3)c3ccccc23)cc(C(C)(C)C)cc1NS(C)(=O)=O (2.5 µM),0
7,COc1ccc([C@@H]2CC(=O)c3c(O)cc(O)cc3O2)cc1O [Hesperetin] (10 µM),0
8,N#Cc1cccc(-c2c[nH]c3ncnc(N4CCOCC4)c23)c1 (10 µM),0
9,C/C(=C1/C(=O)Nc2ccc(NC(N)=O)cc21)c1ccc[nH]1 (10 µM),0
10,Nc1ncnc2c1c(-c1ccc(Oc3ccccc3)cc1)nn2C1CCNCC1 [N-piperidine Ibrutinib (hydrochloride)] (10 µM),0
11,N#Cc1ccc2ncnc(NC3CCC(N4CCOCC4)CC3)c2c1 (configuration not stated) (10 µM),0
12,CC(=O)c1c(C)c2cnc(Nc3ccc(N4CCN(CCCCNC(=O)COc5cccc6c5C(=O)N(C5CCC(=O)NC5=O)C6=O)CC4)cn3)nc2n(C2CCCC2)c1=O (configuration not stated) (10 µM),0
13,CC(C)=CC(=O)CCC(=O)N1CCN(Cc2cc3nc(-c4cccc5[nH]ncc45)nc(N4CCOCC4)c3s2)CC1 (10 µM),0
14,Cc1ccc(S(=O)(=O)Nc2ccccc2C=Nc2ccccc2NS(=O)(=O)c2ccc(C)cc2)cc1 (10 µM),0
15,NCCN1CCN(C/C=C/C(=O)N2CCC[C@@H](n3nc(-c4ccc(Oc5ccccc5)cc4)c4c(N)ncnc43)C2)CC1 [Ibrutinib-MPEA] (10 µM),0
16,O=C(CNC(=O)c1ccc(-c2ccccc2)cc1)NC1CCCc2ccccc21 (configuration not stated) [TAO Kinase inhibitor 1] (10 µM),0
